Laboratory results: PubChem BioAssay AID652243 (Drosophila RNAi Screening Center, 2013)
Assay: 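Knock-downs that decrease or increase androgen receptor reporter signal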 (primary screen). System: Drosophila S2R+ cells. Knock-down reagent: long dsRNA against Drosophila genes. Time to read-out: 72 h (48 h, then 24 h hormone). Challenge: synthetic androgen R1881 at 10 nM for 24 h. Detection: 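Per-well raw luminescence of the androgen-driven firefly reporter and of the Renilla control, two replicates each, without normalisation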. Direction: firefly reporter light: higher = more light from androgen-responsive reporter; Renilla control light: higher = more constitutive control signal (cell number, transfection). Hit rule: 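Across duplicate plates, a knock-down whose log firefly/Renilla ratio shifted a set fold down or up from the GFP/LacZ control mean was a hit; the downward cut appears as both 1.5 and 3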. Meaning of the calls: active = hit: reporter lowered or raised; inactive = no hit.
The screen tested about 24,000 reagents; shown is a random part of those that have a named target and a result. In the full data, 246 (1%) were called active. 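Plates not normalised; calls are printed but the firefly/Renilla ratio behind them is not deposited; fold cut for lowering reported inconsistently.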 The raw values are shown without normalisation. Not stated in the record: the amount of reagent.

no.	target gene	PubChem SID	firefly reporter light, replicate 1	firefly reporter light, replicate 2	Renilla control light, replicate 1	Renilla control light, replicate 2	outcome
1	Cyp9c1	SID104184399	7.42e5	7.63e5	9.62e5	1.08e6	inactive
2	nsr	SID104184219	4.57e5	2.66e5	1.20e6	9.62e5	inactive
3	nsr	SID104202165	3.96e5	8.09e5	7.62e5	1.67e6	inactive
4	PolZ2	SID104192117	72332	41802	2.06e6	6.43e5	inactive
5	ghi	SID104188777	3.83e5	5.43e5	9.83e5	2.13e6	inactive
6	LManV	SID104183015	1.95e6	8.68e5	3.56e6	1.61e6	inactive
7	LManV	SID104203060	7.71e5	8.07e5	1.08e6	1.06e6	inactive
8	Or24a	SID104180560	1.47e5	1.56e5	8.22e5	9.39e5	inactive
9	CG15712	SID104186375	1.36e5	1.15e5	2.72e6	2.72e6	inactive
10	CG3071	SID104198318	82848	98332	1.33e6	7.66e5	inactive
11	CG3071	SID104204833	4.09e5	3.95e5	3.68e5	3.39e5	inactive
12	Tsp74F	SID104190300	2.63e5	2.37e5	2.24e6	2.97e6	inactive
13	CG14054	SID104197701	4.99e5	4.43e5	5.38e6	3.76e6	inactive
14	CG30377	SID104186269	1.04e6	8.26e5	2.18e6	2.17e6	inactive
15	CG30377	SID104204252	6.86e5	9.32e5	1.06e6	9.96e5	inactive
16	CG32036	SID104190154	8.07e5	3.95e5	6.63e5	5.56e5	inactive
17	CG32036	SID104206715	6.21e5	4.52e5	2.16e6	1.63e6	inactive
18	CG14445	SID104197730	1.99e5	3.03e5	2.04e6	2.63e6	inactive
19	CG14445	SID104203053	1.11e6	9.70e5	9.25e5	9.04e5	inactive
20	CG34434	SID104197926	4.90e5	5.71e5	2.42e6	1.76e6	inactive
21	CG34434	SID104205467	6.79e5	6.75e5	8.40e5	8.48e5	inactive
22	CG34434	SID104207030	3.72e5	4.10e5	8.43e5	1.16e6	inactive
23	CG6244	SID104190401	2.88e5	2.60e5	2.15e6	1.14e6	inactive
24	CG2906	SID104186633	3.28e5	3.15e5	1.84e6	1.54e6	inactive
25	CG14624	SID104198426	87498	79494	1.34e6	9.83e5	inactive
26	CG14624	SID104203799	8.06e5	1.05e6	9.10e5	1.16e6	inactive
27	CG14416	SID104198431	4.31e5	5.96e5	2.86e6	3.40e6	inactive
28	CG14416	SID104208348	7.49e5	5.15e5	1.40e6	1.28e6	inactive
29	Nup93-2	SID104196013	60973	28963	3.61e5	3.24e5	inactive
30	CG13144	SID104182033	1.32e5	1.80e5	1.36e6	1.11e6	inactive
31	sev	SID104200164	4.77e5	3.52e5	3.23e6	3.77e6	inactive
32	sev	SID104214191					inactive
33	sev	SID104214192					inactive
34	sev	SID104216684	2.47e5	2.44e5	1.02e6	1.21e6	active
35	CG12828	SID104185969	4.52e5	3.58e5	2.31e6	1.59e6	inactive
36	wwk	SID104181733	1.38e5	1.55e5	1.56e6	1.60e6	inactive
37	Hsc70-2	SID104196502	1.11e5	86889	1.46e6	1.21e6	inactive
38	Hsc70-2	SID104207001	1.82e5	2.48e5	3.48e5	7.58e5	inactive
39	Myo95E	SID104195613	1.34e5	1.08e5	6.09e5	6.10e5	inactive
40	List	SID104186312	90916	97303	1.00e6	1.02e6	inactive
41	Tsp42Ep	SID104186663	1.03e6	9.52e5	1.43e6	1.79e6	inactive
42	Lim3	SID104202391	9.41e5	1.27e6	2.00e6	1.56e6	inactive
43	Lim3	SID104207099	3.46e5	5.45e5	9.60e5	1.27e6	inactive
44	Grik	SID104195638	64346	87702	6.29e5	7.96e5	inactive
45	Grik	SID104195639	3.94e5	3.84e5	2.60e6	2.44e6	inactive
46	Grik	SID104204611	3.06e5	2.49e5	6.40e5	6.52e5	inactive
47	Lnk	SID104196521	91772	1.37e5	4.15e5	6.64e5	inactive
48	Ugt36F1	SID104182393	1.39e5	1.40e5	1.27e6	1.34e6	inactive
49	CG17271	SID104195002	3.90e5	3.45e5	3.16e6	3.20e6	inactive
50	CG17271	SID104202339	8.21e5	1.11e6	1.93e6	1.99e6	inactive
51	CG17271	SID104204324	4.67e5	3.04e5	9.86e5	6.38e5	inactive
52	Dtg	SID104195790	50883	78321	2.92e5	6.21e5	inactive
53	Dtg	SID104205491	3.55e5	3.39e5	6.48e5	4.72e5	inactive
54	sbr	SID104199562	2.88e5	2.52e5	2.55e6	2.75e6	inactive
55	sbr	SID104200160	1.42e5	1.15e5	2.06e6	2.19e6	active
56	sbr	SID104208347	3.01e5	2.10e5	1.10e6	1.09e6	inactive
57	CG6959	SID104195943	1.15e5	2.16e5	1.99e6	2.48e6	inactive
58	CG30056	SID104201421	4.34e5	4.78e5	4.05e5	4.67e5	inactive
59	DCAF12	SID104195267	48982	36070	2.98e5	4.02e5	inactive
60	Cyp6a16Psi (retired record)	SID104183099	70130	1.23e5	9.78e5	1.15e6	inactive
61	CG40204 (retired record)	SID104215449	1.01e6	8.32e5	1.65e6	1.55e6	inactive
62	pbl	SID104191173	9.05e5	7.50e5	9.21e5	1.17e6	inactive
63	pbl	SID104204845	3.73e5	2.83e5	6.54e5	6.80e5	inactive
64	Nxf3	SID104201418	3.47e5	4.62e5	1.13e6	2.46e6	inactive
65	Lsp2	SID104189633	1.52e5	1.48e5	1.63e6	1.76e6	inactive
66	Lsp2	SID104191008	1.88e5	1.64e5	1.98e6	1.73e6	inactive
67	Lsp2	SID104202993	4.09e5	3.30e5	4.60e5	4.42e5	inactive
68	Alk	SID104185710	7.80e5	1.07e6	1.41e6	2.23e6	inactive
69	Alk	SID104202699	8.95e5	8.89e5	1.35e6	1.45e6	inactive
70	Alk	SID104214548					inactive
71	Alk	SID104214549					inactive
72	CG42724	SID104192359	50364	11159	2.48e5	77805	inactive
73	CG42724	SID104201795	3.13e5	2.74e5	1.94e6	1.54e6	active
74	CG42724	SID104203700	4.57e5	8.81e5	6.09e5	7.53e5	inactive
75	CG42724	SID104208625	9.31e5	8.15e5	9.98e5	1.14e6	inactive

12 consecutive records already listed:
no.	target gene	PubChem SID	firefly reporter light, replicate 1	firefly reporter light, replicate 2	Renilla control light, replicate 1	Renilla control light, replicate 2	outcome
5	ghi	SID104188777	3.83e5	5.43e5	9.83e5	2.13e6	inactive
6	LManV	SID104183015	1.95e6	8.68e5	3.56e6	1.61e6	inactive
7	LManV	SID104203060	7.71e5	8.07e5	1.08e6	1.06e6	inactive
8	Or24a	SID104180560	1.47e5	1.56e5	8.22e5	9.39e5	inactive
9	CG15712	SID104186375	1.36e5	1.15e5	2.72e6	2.72e6	inactive
10	CG3071	SID104198318	82848	98332	1.33e6	7.66e5	inactive
11	CG3071	SID104204833	4.09e5	3.95e5	3.68e5	3.39e5	inactive
12	Tsp74F	SID104190300	2.63e5	2.37e5	2.24e6	2.97e6	inactive
13	CG14054	SID104197701	4.99e5	4.43e5	5.38e6	3.76e6	inactive
14	CG30377	SID104186269	1.04e6	8.26e5	2.18e6	2.17e6	inactive
15	CG30377	SID104204252	6.86e5	9.32e5	1.06e6	9.96e5	inactive
16	CG32036	SID104190154	8.07e5	3.95e5	6.63e5	5.56e5	inactive
